## Screening data, single-dose tests

Amino acid sequences for entries named in this document (tags omitted).
UniProt P9WNZ1, whole entry: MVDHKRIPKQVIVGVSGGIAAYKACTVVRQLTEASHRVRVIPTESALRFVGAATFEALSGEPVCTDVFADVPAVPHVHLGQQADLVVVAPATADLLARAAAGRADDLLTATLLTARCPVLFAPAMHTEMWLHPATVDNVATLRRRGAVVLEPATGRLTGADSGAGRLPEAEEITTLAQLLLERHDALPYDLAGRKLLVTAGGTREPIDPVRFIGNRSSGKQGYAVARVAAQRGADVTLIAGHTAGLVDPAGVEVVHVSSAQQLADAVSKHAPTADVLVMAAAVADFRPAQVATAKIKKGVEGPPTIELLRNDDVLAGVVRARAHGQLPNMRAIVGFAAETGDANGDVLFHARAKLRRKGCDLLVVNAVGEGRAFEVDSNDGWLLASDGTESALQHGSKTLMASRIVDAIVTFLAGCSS

Measurements from “University of Dundee, Small-Polar-MMV Screening Library” (2021), ChEMBL document CHEMBL3988442.

Toxoplasma: 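Assay of Toxoplasma gondii numbers, read through their beta-galactosidase reporter with a colour substrate. Tested at 10 µM. Higher reads as fewer parasites (inferred from which compounds were picked for retests). About 67,000 compounds were tested under these conditions; 0.38% (about 260) showed 50% or more at least once.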
CoaBC: 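Coenzyme A biosynthesis protein CoaBC, Mycobacterium tuberculosis (UniProt P9WNZ1). Enzyme assay of CoaBC with a phosphate dye (Biomol Green) read at 650 nm. Concentration: 30 µM. Direction is inferred from only a few compounds that gave an IC50; most scored high, so higher reads as stronger inhibition. Most strong results did not repeat in a second test. Of about 67,000 compounds tested this way, about 40 (0.06%) reached 50% or more in at least one test.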

Each number is a percent effect as filed.
The controls that fix the scale are not given in the record; negative values are as filed.
The compounds are a random part of those screened.
A dash means the value is not listed here; it may have been measured.

SMILES	Toxoplasma	CoaBC
CC(C)OCCCN(CC(=O)N1CCNCC1)C(=O)c1ccc(F)cc1	-	3.544%
c1cnc(N2CCO[C@H]3CN(CC4CC4)C[C@H]32)nc1	-	2.222%
CS(=O)(=O)CCSc1cccc(C#N)c1	-4.711%	-8.439%
CCCC(NC(=O)c1ccccc1Br)c1nnn[nH]1 (centres unmarked)	11.98%	7.851%
Clc1ccc(OCCCN2CCOC(Cn3cncn3)C2)cc1 (centres unmarked)	-1.812%	8.82%
CC(=O)NC1CCCN(C(=O)Nc2cnc3c(cnn3C(C)C)c2)C1 (centres unmarked)	0.3231%	7.083%
O=C(O)C(F)(F)F.[H][C@@]12CCN(C(=O)c3ccccc3)[C@@]1([H])CC(=O)N2CCN1CCOCC1	4.362%	-
Cc1ccc(C2(CN3CCCC3)CCNCC2)nc1	2.193%	-27.51%
Cc1ccc(OC2(C(=O)O)CCN(C(=O)c3nc(C)oc3C)CC2)cn1	-1.164%	0.8772%
Cc1oc(C)c(C(=O)N2CCCN(c3nccs3)CC2)c1C	7.513%	0.5222%
Cc1ncsc1C(=O)N1CCC(c2ncncc2-c2ccnc(N)c2)C1 (centres unmarked)	-	-3.563%
CN1CC(Oc2ccc(Cl)cc2)=NC(SCC(=O)c2ccccc2)=N1	-9.342%	0.8147%
COCCc1noc(CNC2CCc3nc(C(C)C)nn3C2)n1 (centres unmarked)	-2.658%	3.077%
[H][C@@]12CCCCCN(C(=O)CC)[C@@]1([H])[C@H](c1cccc(F)c1)CN2C	17.36%	-
CCc1noc(CC)c1CNC(=O)Nc1cccc(C(=O)N(C)C)c1	-1.441%	-3.226%
OC1CCN(CCCNc2nccc(C3CCCC3)n2)CC1	2.013%	-32.91%
CCOc1ncccc1NC(=O)c1ccc(C)s1	-3.387%	-0.5102%
CC(=O)NCCCNCc1cc(F)ccc1Br	-0.3846%	-5.782%
CCOc1ccc(C#N)cc1NC(=O)N1CCOC(C(N)=O)C1 (centres unmarked)	-4.315%	10.36%
CC(C)c1nc(CN(C)C2CCCN(c3cccnn3)C2)no1 (centres unmarked)	-5.08%	-3.226%
CN(C)C(=O)CCS(=O)(=O)Cc1cc(Cl)c2c(c1)OCCO2	-7.127%	0.4132%
COc1ccc(-n2ccc(C(=O)N3CCC(C(N)=O)C3)n2)cc1 (centres unmarked)	2.477%	-0.6745%
CS(=O)(=O)CCOCCNc1ccc2ccc(F)cc2n1	7.112%	6.483%
Cc1nnsc1CN(C)Cc1ccc(C(=O)Nc2sccc2C#N)cc1	20.3%	-1.653%
CC(=O)N1CCC(C(=O)NC(C)c2cccc(OC(F)F)c2)CC1 (centres unmarked)	0.5514%	12.47%
N#Cc1cccnc1NC1CCN(c2ccccc2OC(F)F)C1=O (centres unmarked)	6.25%	-7.317%
O=C(O)C(F)(F)F.O=C(O)C(F)(F)F.c1cnc(N2CCC3(CCN(Cc4ccncc4)CC3)CC2)nc1	-2.743%	-
CSCC(CCO)NC(=O)Nc1cc(C)ccc1C (centres unmarked)	-1.423%	-5.33%
CCOC1CCN(CCc2nc(-c3cccc(Cl)c3)no2)CC1	-16.67%	-4.497%
CCc1nc(CC(=O)NC(C#N)CC(C)C)cs1 (centres unmarked)	-0.3157%	0.1626%
O=C(NCCN1CCCC1)c1nc2c(o1)CN(C(=O)c1cccnc1)C2	-	-6.84%
COC(=O)c1ccc(N2CCN(C(=O)c3cccnc3)C(C)C2)cc1 (centres unmarked)	5.073%	4.337%
COc1ccc(C(=O)N2C[C@@H](C)[C@@](C)(O)C2)cc1N1CCOCC1	3.738%	2.73%
CN(CC(N)=O)C(=O)CCCn1ccc2cc(Cl)ccc21	7.729%	-4.538%
CN(C)C(=O)COC[C@H]1CC[C@@H]2[C@@H](CCN2Cc2ccco2)O1	-	10.18%
CC(=O)N[C@@H]1CN(C(=O)CC2CC2)C[C@H]1O	5.685%	8.858%
O=C(CCn1cc(Cl)cn1)N1CCCC(O)(CO)CC1 (centres unmarked)	-1.723%	6.958%
COC[C@@]12CCC[C@@H]1CN(C(=O)COc1ccccc1OC)C2	-	5.432%
Cc1cccc(CN2CCC3(CCCN(CC(=O)N(C)C)C3)C2)n1.O=C(O)C(F)(F)F (centres unmarked)	17.88%	-
Cc1ccoc1C(=O)N1CC(C(=O)NCC2CC2)C2(CCOCC2)C1 (centres unmarked)	0%	-5.684%
O=C1NCCCc2[nH]c(-c3nc(C4CCCCC4)no3)nc21	-4.831%	-0.4914%
Cc1ccc(=O)n(CC2(O)CCN(Cc3cc(C)c(O)c(C)c3)CC2)n1	-	-5.556%
CN(C)c1cncc(C2CCCN(c3cnccn3)C2)n1 (centres unmarked)	-7.176%	-1.435%
COc1cc(CNCc2ccnc(N3CCCCC3)c2)cc(OC)c1	23%	6.842%
CN(C)S(=O)(=O)c1csc(C(=O)N2CCSCC2)c1	6.379%	-1.811%
Cc1nc(NC(=O)c2c(-n3cnnn3)sc3c2CCC3)sc1C	-	-0.8505%
CCOCCn1nc(C)cc1C(=O)N1CC[C@](O)(CC)[C@H](O)C1	12.08%	-1.809%
O=C1CCCCN1CCCNCc1cnc(C2CCC2)s1	-26.52%	2.061%
CC(C)CC(C#N)NC(=O)c1ccc(Oc2cccnc2)cc1 (centres unmarked)	9.35%	-9.917%
CC(C)(C)c1cc(=O)[nH]c(-c2ccccc2CN2CCC[C@@H](O)C2)n1	9.98%	7.2%
COc1cc(N2CC[C@@H]3O[C@H](C(=O)NCC4CC4)C[C@@H]32)ncn1	-	-0.3699%
O=C(CC1CC1)N1C[C@@H](O)[C@H](N2CCN(c3ccccc3)CC2)C1	1.171%	-19.37%
CS(=O)(=O)CCC(=O)Nc1cnn(-c2ccccc2Cl)c1	4.847%	7.42%
CC(NC(=O)c1csnn1)c1ccc(OCC2CC2)c(F)c1 (centres unmarked)	1.571%	10.74%
Cc1ccc(C)c(SCC(=O)Nc2cccc(C(=O)N(C)C)n2)c1	3.21%	-5.161%
CN1Cc2ccccc2CC2(CCN(Cc3nccn3C)CC2)C1=O	7.528%	0.7317%
COc1ccc(Cc2nnc3n2N=C(C(C)(C)C)CS3)cc1	-6.283%	8.367%
O=C(C1CCC2(CCN(CC3CCOCC3)CC2)O1)N1CCCC1.O=C(O)C(F)(F)F (centres unmarked)	-11.01%	-
Cc1ccc(S(=O)(=O)NC(=O)c2cc(S(C)(=O)=O)ccc2C)s1	-8.587%	5.579%
CC(CO)N(C)C(=O)c1cn(-c2ccc(Br)cc2)cn1 (centres unmarked)	-15.37%	2.39%
CN(C)c1ncc(CN2CCC(O)(c3ccccc3F)CC2)cn1	-	-7.884%
Cc1nc(CN2C[C@@H]3CCCO[C@@H]3[C@H](N(C)C(C)C)C2)cs1	-	3.171%
CCN1C[C@H]2C3(CCN(S(C)(=O)=O)CC3)CC[C@@]2(C(=O)N(C)C)C1	-	2.709%
CN1CC2(CCN(S(=O)(=O)C3CC3)CC2)c2ccccc21.O=C(O)C(F)(F)F	6.203%	-
Cc1nnc(NC(=O)CN2CCCC2c2noc(C3CC3)n2)s1 (centres unmarked)	9.783%	4.401%
Fc1ccccc1CN1CCCC2(CCN(c3ncccn3)C2)C1 (centres unmarked)	8.84%	-10.75%
CCOc1ccc2[nH]c(=O)c(CN3CCCC(CO)(CO)C3)cc2c1	10.4%	2.03%
Cc1cc(C)n(C2CN(Cc3noc(C4CC4)n3)C2)n1	18.07%	3.807%
O=C(CCC1CCCO1)NCCCC(=O)Nc1ccc(Cl)cc1 (centres unmarked)	-1.201%	-0.4819%
Cc1ccccc1SCC(=O)NS(=O)(=O)c1ccc2c(c1)OCCO2	13.36%	3.422%
CCc1ccc(-c2cc(C(F)(F)F)nc(N3CCC(N)CC3)n2)cc1	99.66%	11.11%
Clc1cnccc1N1CCC(OC2CCOCC2)CC1	-51.06%	3.614%
O=C(O)C(F)(F)F.[H][C@@]12COC[C@@H](C(=O)N3CCCO3)[C@]1([H])CN(C1CCOCC1)C2	0.3695%	-
CC(Cn1cccn1)NC(=O)NCCCN1CCc2ccccc2C1 (centres unmarked)	0%	-24.2%
Cn1ccnc1CCNS(=O)(=O)c1ccc(Br)cc1	-5.023%	-8.266%
COC(=O)C1CCN(C(=O)Cn2ccc(-c3ccsc3)n2)CC1	-4.618%	7.753%
O=C(c1cc[nH]n1)N1CCc2cc(Br)sc2C1	-2.747%	-4.303%
CCOC(=O)C1=NOC(Cc2cc(OC)c3c(c2)OCO3)C1 (centres unmarked)	7.533%	3.641%
O=C(CC1CCC2(CC1)CCN(Cc1nccs1)CC2)N1CC=CC1	-0.8912%	-1.235%
Cc1nnc(NC(=O)CN2CCc3nn(C(C)C)c(=O)cc3C2)s1	-30.68%	0%
Cn1nc(C2CCN(C(=O)CN3CCCCC3)CC2)c2cccnc21	-	-0.9804%
CCC(=O)Nc1cccc(OCC(=O)N(C)Cc2nc(C)c[nH]2)c1	0.1729%	-3.086%
CCOC(=O)C1CCCN(c2ccc(-c3nc(C)no3)cn2)C1 (centres unmarked)	-5.617%	8.482%
COc1ccc(CN2CC[C@@H](O)[C@@H]2Cc2cnn(C)c2)cc1.O=C(O)C(F)(F)F	1.642%	-

8 of the entries, repeated:

{"smiles": "CN(C)C(=O)CCS(=O)(=O)Cc1cc(Cl)c2c(c1)OCCO2", "Toxoplasma": -7.127, "CoaBC": 0.4132}
{"smiles": "CC(Cn1cccn1)NC(=O)NCCCN1CCc2ccccc2C1", "stereo": "centres unmarked", "Toxoplasma": 0, "CoaBC": -24.2}
{"smiles": "Cc1oc(C)c(C(=O)N2CCCN(c3nccs3)CC2)c1C", "Toxoplasma": 7.513, "CoaBC": 0.5222}
{"smiles": "CN(C)S(=O)(=O)c1csc(C(=O)N2CCSCC2)c1", "Toxoplasma": 6.379, "CoaBC": -1.811}
{"smiles": "CC(=O)N[C@@H]1CN(C(=O)CC2CC2)C[C@H]1O", "Toxoplasma": 5.685, "CoaBC": 8.858}
{"smiles": "CCOc1ccc2[nH]c(=O)c(CN3CCCC(CO)(CO)C3)cc2c1", "Toxoplasma": 10.4, "CoaBC": 2.03}
{"smiles": "O=C(C1CCC2(CCN(CC3CCOCC3)CC2)O1)N1CCCC1.O=C(O)C(F)(F)F", "stereo": "centres unmarked", "Toxoplasma": -11.01}
{"smiles": "O=C(O)C(F)(F)F.[H][C@@]12CCN(C(=O)c3ccccc3)[C@@]1([H])CC(=O)N2CCN1CCOCC1", "Toxoplasma": 4.362}